Experimental data as given in the supplement of paper PMC4604168 (melanoma cell lines).
Some of the results follow. Repeats are few or missing, and single values can be far off.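 Cells were imaged in 1,536-well plates, and nuclei stained with an antibody against cleaved PARP were counted against all DNA-stained nuclei to give the apoptosis fraction. Screening doses were chosen to leave most cells alive, and resting and induced cleaved-PARP levels differ strongly between cell lines.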

Assays:
Assay in all cases: cleaved PARP positive nuclei fraction relative to DMSO control; melanoma cells; higher = more apoptosis
Conditions in all cases: library dose: low library concentration; 72 h
501Mel = tested on: 501Mel
A101D = tested on: A101D
A2058 = tested on: A2058
A375 = tested on: A375
C32 = tested on: C32
CBRC008 = tested on: CBRC008 (line from a melanoma biopsy)
CBRC013 = tested on: CBRC013 (line from a melanoma biopsy)
CBRC014 = tested on: CBRC014 (line from a melanoma biopsy)
CBRC016 = tested on: CBRC016 (line from a melanoma biopsy)
CBRC017 = tested on: CBRC017 (line from a melanoma biopsy)
COLO792 = tested on: COLO792
COLO800 = tested on: COLO800
COLO829 = tested on: COLO829
G361 = tested on: G361
IPC-298 = tested on: IPC-298
IST-MEL1 = tested on: IST-MEL1
LB2518-MEL = tested on: LB2518-MEL
LOXIMVI = tested on: LOXIMVI
MEL-HO = tested on: MEL-HO

Row | Structure (SMILES) | cleaved PARP positive nuclei fraction (501Mel) [%] | cleaved PARP positive nuclei fraction (A101D) [%] | cleaved PARP positive nuclei fraction (A2058) [%] | cleaved PARP positive nuclei fraction (A375) [%] | cleaved PARP positive nuclei fraction (C32) [%] | cleaved PARP positive nuclei fraction (CBRC008) [%] | cleaved PARP positive nuclei fraction (CBRC013) [%] | cleaved PARP positive nuclei fraction (CBRC014) [%] | cleaved PARP positive nuclei fraction (CBRC016) [%] | cleaved PARP positive nuclei fraction (CBRC017) [%] | cleaved PARP positive nuclei fraction (COLO792) [%] | cleaved PARP positive nuclei fraction (COLO800) [%] | cleaved PARP positive nuclei fraction (COLO829) [%] | cleaved PARP positive nuclei fraction (G361) [%] | cleaved PARP positive nuclei fraction (IPC-298) [%] | cleaved PARP positive nuclei fraction (IST-MEL1) [%] | cleaved PARP positive nuclei fraction (LB2518-MEL) [%] | cleaved PARP positive nuclei fraction (LOXIMVI) [%] | cleaved PARP positive nuclei fraction (MEL-HO) [%]
1 | N#CC[C@H](C1CCCC1)n1cc(-c2ncnc3[nH]ccc23)cn1 [ruxolitinib] + O=C(Nc1cccc(Cl)c1)Nc1ncc(CCNc2ncnc3ccsc23)s1 [SNS314] (first compound 1 µM, partner dose 0.0008 µM) | 241 | 37.9 | 130 | 104 | 140 | 158 | 127 | 89.6 | 138 | 136 | 118 | 27.7 | 39.4 | 99.1 | 57.6 | 170 | 78.4 | 50.3 | 68.7
2 | COc1cc([C@@H]2c3cc4c(cc3[C@@H](O[C@@H]3O[C@@H]5CO[C@@H](C)O[C@H]5[C@H](O)[C@H]3O)[C@H]3COC(=O)[C@H]23)OCO4)cc(OC)c1O [etoposide] + O=C(O)c1ccc(-c2c[nH]c3ncc(-c4ccccc4)cc23)cc1C1CCCC1 [GSK650394] (first compound 0.02 µM, partner dose 0.16 µM) | 57.1 | 43.6 | 192 | 109 | 61.5 | 366 | 151 | 88.6 | 337 | 137 | 115 | 199 | 66.9 | 133 | 67.7 | 399 | 106 | 23.2 | 77
3 | O=C(/C=C/c1cccnc1)NCCCCC1CCN(C(=O)c2ccccc2)CC1 + Cn1cncc1[C@@](N)(c1ccc(Cl)cc1)c1ccc2c(c1)c(-c1cccc(Cl)c1)cc(=O)n2C [tipifarnib] (first compound 0.01 µM, partner dose 0.01 µM) | 108 | 286 | 37.9 | 127 | 151 | 3430 | 118 | 91.3 | 560 | 409 | 884 | 236 | 236 | 4520 | 49.8 | 73.1 | 145 | 96.8 | 304
4 | O=C(Nc1cc(C(F)(F)F)cc(C(F)(F)F)c1)c1cc(Cl)ccc1O + CN(NC(=O)CC(=O)NN(C)C(=S)c1ccccc1)C(=S)c1ccccc1 [STA4783] (first compound 0.016 µM, partner dose 0.006 µM) | 222 | 92 | 110 | 2960 | 52.1 | 1690 | 128 | 885 | 236 | 213 | 118 | 197 | 242 | 133 | 94.4 | 140 | 115 | 143 | 101
5 | CCCCCCCCCCCCCCCCCCOP(=O)([O-])OC1CC[N+](C)(C)CC1 [Perifosine] + NCC(=O)Nc1ccc(-n2nc(C(F)(F)F)cc2-c2ccc3c(ccc4ccccc43)c2)cc1 [OSU03012] (first compound 0.4 µM, partner dose 1 µM) | 402 | 66.9 | 114 | 9070 | 83.6 | 170 | 129 | 78.5 | 113 | 99.2 | 71.3 | 108 | 114 | 63.1 | 53 | 45.9 | 93.2 | 48.9 | 638
6 | O=c1[nH]nc(Sc2ncc([N+](=O)[O-])s2)n1-c1ccc2c(c1)OCCO2 + Cc1ccc(NC(=O)c2cccc(N(C)C)c2)cc1NC(=O)c1ccc(O)cc1 [ZM336372] (first compound 0.2 µM, partner dose 2 µM) | 297 | 140 | 60.6 | 178 | 141 | 97.8 | 90.6 | 106 | 84.8 | 93.4 | 61.5 | 124 | 62.6 | 106 | 102 | 196 | 52.8 | 33.1 | 75.8
7 | O=C(/C=C/c1cccnc1)NCCCCC1CCN(C(=O)c2ccccc2)CC1 + O=C(Nc1cccc(Cl)c1)Nc1ncc(CCNc2ncnc3ccsc23)s1 [SNS314] (first compound 0.01 µM, partner dose 0.0008 µM) | 78.9 | 187 | 79.6 | 125 | 41.8 | 1780 | 96.2 | 102 | 368 | 623 | 249 | 247 | 198 | 2600 | 418 | 144 | 141 | 33.6 | 627
8 | O=C(/C=C/c1cccnc1)NCCCCC1CCN(C(=O)c2ccccc2)CC1 + C[C@@H]1CCN(C(=O)CC#N)C[C@@H]1N(C)c1ncnc2[nH]ccc12 [CP690550] (first compound 0.01 µM, partner dose 1 µM) | 98.6 | 154 | 158 | 43.9 | 64 | 2990 | 171 | 110 | 238 | 532 | 337 | 202 | 138 | 4130 | 662 | 50.7 | 50.8 | 27.8 | 146
9 | O=c1[nH]nc(Sc2ncc([N+](=O)[O-])s2)n1-c1ccc2c(c1)OCCO2 + CO[C@@H]1[C@H](N(C)C(=O)c2ccccc2)C[C@H]2O[C@]1(C)n1c3ccccc3c3c4c(c5c6ccccc6n2c5c31)C(=O)NC4 [Midostaurin] (first compound 0.2 µM, partner dose 0.08 µM) | 88.9 | 276 | 105 | 64.5 | 46.7 | 164 | 109 | 543 | 235 | 113 | 257 | 269 | 154 | 97.1 | 92.1 | 177 | 46.8 | 24.7 | 62.6
10 | O=C(/C=C/c1cccnc1)NCCCCC1CCN(C(=O)c2ccccc2)CC1 + OCCn1cc(-c2cnc3nnn(Cc4ccc5ncccc5c4)c3n2)cn1 [PF04217903] (first compound 0.01 µM, partner dose 1 µM) | 141 | 87.2 | 94.7 | 216 | 42.7 | 2170 | 140 | 107 | 497 | 499 | 373 | 222 | 252 | 2120 | 106 | 142 | 61.4 | 112 | 189
11 | O=C(/C=C/c1cccnc1)NCCCCC1CCN(C(=O)c2ccccc2)CC1 + CC1(C)NC(=O)N(c2ccc([N+](=O)[O-])c(C(F)(F)F)c2)C1=O [nilutamide] (first compound 0.01 µM, partner dose 1 µM) | 172 | 83.7 | 27.2 | 106 | 104 | 1980 | 64.4 | 95.4 | 478 | 280 | 684 | 202 | 300 | 3530 | 73.8 | 71.1 | 113 | 49.1 | 477
12 | O=C(/C=C/c1cccnc1)NCCCCC1CCN(C(=O)c2ccccc2)CC1 + CO[C@@H]1[C@H](N(C)C(=O)c2ccccc2)C[C@H]2O[C@]1(C)n1c3ccccc3c3c4c(c5c6ccccc6n2c5c31)C(=O)NC4 [Midostaurin] (first compound 0.01 µM, partner dose 0.08 µM) | 174 | 58.1 | 80.2 | 155 | 224 | 3610 | 99.5 | 107 | 825 | 1500 | 808 | 72.8 | 397 | 3000 | 516 | 110 | 597 | 139 | 486
13 | COc1cc([C@@H]2c3cc4c(cc3[C@@H](O[C@@H]3O[C@@H]5CO[C@@H](C)O[C@H]5[C@H](O)[C@H]3O)[C@H]3COC(=O)[C@H]23)OCO4)cc(OC)c1O [etoposide] + CN(C)S(=O)(=O)c1ccc2c(c1)/C(=C/c1cc3c([nH]1)CCCC3)C(=O)N2 [SU6656] (first compound 0.02 µM, partner dose 0.4 µM) | 155 | 48 | 102 | 180 | 71 | 137 | 202 | 3500 | 250 | 76.4 | 117 | 36.8 | 51.6 | 111 | 188 | 88.2 | 139 | 52.5 | 27.8
14 | CC[C@]1(O)C[C@H]2CN(CCc3c([nH]c4ccccc34)[C@@](C(=O)OC)(c3cc4c(cc3OC)N(C=O)[C@H]3[C@@](O)(C(=O)OC)[C@H](OC(C)=O)[C@]5(CC)C=CCN6CC[C@]43[C@@H]65)C2)C1 [vincristine] + O=C(CCCCCCC(=O)Nc1ccccc1)NO [vorinostat] (first compound 0.0001 µM, partner dose 0.08 µM) | 226 | 61 | 64.2 | 145 | 224 | 196 | 112 | 82.5 | 253 | 116 | 184 | 55.8 | 74.3 | 119 | 49.4 | 106 | 53.1 | 95.4 | 202
15 | Cc1cc(Nc2cc(N3CCN(C)CC3)nc(Sc3ccc(NC(=O)C4CC4)cc3)n2)n[nH]1 [Tozasertib] + O=C(CCCCCCC(=O)Nc1ccccc1)NO [vorinostat] (first compound 0.006 µM, partner dose 0.08 µM) | 40 | 160 | 100 | 117 | 92.1 | 66.3 | 72.6 | 97.2 | 90.2 | 128 | 112 | 166 | 77.4 | 54.3 | 43.6 | 81.4 | 196 | 42.1 | 29.4
16 | CC[C@]1(O)C[C@H]2CN(CCc3c([nH]c4ccccc34)[C@@](C(=O)OC)(c3cc4c(cc3OC)N(C=O)[C@H]3[C@@](O)(C(=O)OC)[C@H](OC(C)=O)[C@]5(CC)C=CCN6CC[C@]43[C@@H]65)C2)C1 [vincristine] + Cc1cc(N2CCOCC2)cc2[nH]c(-c3c(NC[C@@H](O)c4cccc(Cl)c4)cc[nH]c3=O)nc12 [BMS536924] (first compound 0.0001 µM, partner dose 0.2 µM) | 216 | 125 | 1540 | 258 | 322 | 501 | 198 | 132 | 75.7 | 138 | 59.8 | 81.7 | 259 | 151 | 141 | 106 | 50.7 | 24.7 | 64
17 | Cc1cn(-c2cc(NC(=O)c3ccc(C)c(Nc4nccc(-c5cccnc5)n4)c3)cc(C(F)(F)F)c2)cn1 [nilotinib] + Cn1cncc1[C@@](N)(c1ccc(Cl)cc1)c1ccc2c(c1)c(-c1cccc(Cl)c1)cc(=O)n2C [tipifarnib] (first compound 0.2 µM, partner dose 0.01 µM) | 112 | 39.7 | 154 | 332 | 86.4 | 159 | 85.2 | 75.2 | 184 | 88.2 | 265 | 57.2 | 189 | 116 | 90.9 | 192 | 93 | 77.5 | 102

A different layout for part of the listing above:
Row,Structure (SMILES),cleaved PARP positive nuclei fraction (501Mel) [%],cleaved PARP positive nuclei fraction (A101D) [%],cleaved PARP positive nuclei fraction (A2058) [%],cleaved PARP positive nuclei fraction (A375) [%],cleaved PARP positive nuclei fraction (C32) [%],cleaved PARP positive nuclei fraction (CBRC008) [%],cleaved PARP positive nuclei fraction (CBRC013) [%],cleaved PARP positive nuclei fraction (CBRC014) [%],cleaved PARP positive nuclei fraction (CBRC016) [%],cleaved PARP positive nuclei fraction (CBRC017) [%],cleaved PARP positive nuclei fraction (COLO792) [%],cleaved PARP positive nuclei fraction (COLO800) [%],cleaved PARP positive nuclei fraction (COLO829) [%],cleaved PARP positive nuclei fraction (G361) [%],cleaved PARP positive nuclei fraction (IPC-298) [%],cleaved PARP positive nuclei fraction (IST-MEL1) [%],cleaved PARP positive nuclei fraction (LB2518-MEL) [%],cleaved PARP positive nuclei fraction (LOXIMVI) [%],cleaved PARP positive nuclei fraction (MEL-HO) [%]
6,"O=c1[nH]nc(Sc2ncc([N+](=O)[O-])s2)n1-c1ccc2c(c1)OCCO2 + Cc1ccc(NC(=O)c2cccc(N(C)C)c2)cc1NC(=O)c1ccc(O)cc1 [ZM336372] (first compound 0.2 µM, partner dose 2 µM)",297,140,60.6,178,141,97.8,90.6,106,84.8,93.4,61.5,124,62.6,106,102,196,52.8,33.1,75.8
15,"Cc1cc(Nc2cc(N3CCN(C)CC3)nc(Sc3ccc(NC(=O)C4CC4)cc3)n2)n[nH]1 [Tozasertib] + O=C(CCCCCCC(=O)Nc1ccccc1)NO [vorinostat] (first compound 0.006 µM, partner dose 0.08 µM)",40,160,100,117,92.1,66.3,72.6,97.2,90.2,128,112,166,77.4,54.3,43.6,81.4,196,42.1,29.4
